Measured data: PubChem BioAssay AID1259308 (NCATS, 2017)

- Test: 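Knock-downs that increase output of a recombinant reporter protein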 (primary screen)
- System: human HEK293 embryonic kidney cells stably expressing firefly luciferase (HEK-CMV-Luc2-Hygro)
- Reagent: single siRNA against human genes, 0.8 pmol siRNA per well
- Duration: 72 h
- Detection: 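Reporter luminescence and viable-cell signal on separate replicate plates, given as percent of non-targeting control and median/MAD z-scores, plus per-cell luciferase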
- Direction: total luciferase, z-score and total luciferase, % of control: higher = more reporter protein produced; luciferase per cell, z-score: higher = more reporter output per viable cell
- Call rule: 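Active when the median/MAD z-score for overall luciferase is greater than 3; a gene was taken forward for validation with new siRNAs if at least two of its three siRNAs passed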
- Meaning of the calls: active = raised luciferase; inactive = no rise
This is one part, drawn at random, of about 59,000 reagents. Over the whole deposit, about 1,510 (2.6%) are marked active. 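Calls use total luciferase alone and ignore viability, so some active siRNAs may act by altering cell number.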 Entries without a mark were called inactive. Reagents against one gene are numbered here. Not all columns of the deposit are shown. No sequences are given here.

The first 5 entries, to show the layout:
| total luciferase, z-score | total luciferase, % of control | luciferase per cell, z-score | Target gene | reagent no. |
| --- | --- | --- | --- | --- |
| 0.447 | 90.8 | 0.331 | LDB1 (LIM domain binding 1) | 1 |
| 2.47 | 131 | 2.47 | LDB1 (LIM domain binding 1) | 2 |
| 1.02 | 102 | 0.756 | LDB1 (LIM domain binding 1) | 3 |
| -1.97 | 42.7 | -0.0969 | TNK2 (tyrosine kinase non receptor 2) | 1 |
| 0.246 | 86.8 | -0.245 | TNK2 (tyrosine kinase non receptor 2) | 2 |

Main list, from the first entry:
| total luciferase, z-score | total luciferase, % of control | luciferase per cell, z-score | Target gene | reagent no. |
| --- | --- | --- | --- | --- |
| 0.447 | 90.8 | 0.331 | LDB1 (LIM domain binding 1) | 1 |
| 2.47 | 131 | 2.47 | LDB1 (LIM domain binding 1) | 2 |
| 1.02 | 102 | 0.756 | LDB1 (LIM domain binding 1) | 3 |
| -1.97 | 42.7 | -0.0969 | TNK2 (tyrosine kinase non receptor 2) | 1 |
| 0.246 | 86.8 | -0.245 | TNK2 (tyrosine kinase non receptor 2) | 2 |
| -1.29 | 56.3 | -1.34 | TNK2 (tyrosine kinase non receptor 2) | 3 |
| -0.118 | 79.5 | 0.273 | SPAG11B (sperm associated antigen 11B) | 1 |
| -0.495 | 72 | -0.0579 | SPAG11B (sperm associated antigen 11B) | 2 |
| -0.0222 | 81.4 | 0.334 | SPAG11B (sperm associated antigen 11B) | 3 |
| 1.86 | 119 | 1.63 | ALKBH7 (alkB homolog 7, RNA demethylase) | 1 |
| -1.25 | 57 | -1.53 | ALKBH7 (alkB homolog 7, RNA demethylase) | 2 |
| 1.01 | 102 | 1.5 | ALKBH7 (alkB homolog 7, RNA demethylase) | 3 |
| -0.245 | 77 | -0.368 | MYOZ3 (myozenin 3) | 1 |
| 0.389 | 89.6 | -0.15 | MYOZ3 (myozenin 3) | 2 |
| 0.276 | 87.4 | 0.0553 | MYOZ3 (myozenin 3) | 3 |
| 0.437 | 90.6 | 0.959 | PPP4R3B (protein phosphatase 4 regulatory subunit 3B) | 1 |
| -0.349 | 75 | -0.489 | PPP4R3B (protein phosphatase 4 regulatory subunit 3B) | 2 |
| -2.46 | 33 | -3.76 | PPP4R3B (protein phosphatase 4 regulatory subunit 3B) | 3 |
| 0.345 | 88.7 | 0.249 | OLFML3 (olfactomedin like 3) | 1 |
| -0.91 | 63.8 | -1.11 | OLFML3 (olfactomedin like 3) | 2 |
| 0.503 | 91.9 | 0.398 | OLFML3 (olfactomedin like 3) | 3 |
| 0.818 | 98.2 | 1.49 | CHAMP1 (chromosome alignment maintaining phosphoprotein 1) | 1 |
| 0.55 | 92.8 | 0.24 | CHAMP1 (chromosome alignment maintaining phosphoprotein 1) | 2 |
| 0.0706 | 83.3 | -0.861 | CHAMP1 (chromosome alignment maintaining phosphoprotein 1) | 3 |
| 0.162 | 85.1 | 0.0839 | MREG (melanoregulin) | 1 |
| 0.264 | 87.1 | 0.227 | MREG (melanoregulin) | 2 |
| -0.472 | 72.5 | -1.06 | MREG (melanoregulin) | 3 |
| -0.43 | 73.3 | -0.339 | TNXB (tenascin XB) | 1 |
| 0.453 | 90.9 | -0.367 | TNXB (tenascin XB) | 2 |
| 3.25 (active) | 146 | 1.38 | TNXB (tenascin XB) | 3 |
| 0.744 | 96.7 | 0.597 | NAP1L1 (nucleosome assembly protein 1 like 1) | 1 |
| -0.738 | 67.2 | -0.481 | NAP1L1 (nucleosome assembly protein 1 like 1) | 2 |
| -0.535 | 71.3 | -1.04 | NAP1L1 (nucleosome assembly protein 1 like 1) | 3 |
| 0.738 | 96.6 | 0.233 | FSIP1 (fibrous sheath interacting protein 1) | 1 |
| 1.6 | 114 | 2.15 | FSIP1 (fibrous sheath interacting protein 1) | 2 |
| -0.0815 | 80.3 | -0.503 | FSIP1 (fibrous sheath interacting protein 1) | 3 |
| -0.589 | 70.2 | -0.644 | ARHGEF26 (Rho guanine nucleotide exchange factor 26) | 1 |
| 0.916 | 100 | 0.804 | ARHGEF26 (Rho guanine nucleotide exchange factor 26) | 2 |
| -0.499 | 72 | -0.707 | ARHGEF26 (Rho guanine nucleotide exchange factor 26) | 3 |
| -0.0104 | 81.7 | -0.0706 | CPM (carboxypeptidase M) | 1 |
| 0.286 | 87.6 | 0.358 | CPM (carboxypeptidase M) | 2 |
| -0.499 | 72 | -0.797 | CPM (carboxypeptidase M) | 3 |
| -0.434 | 73.2 | -0.733 | RAB40C (RAB40C, member RAS oncogene family) | 1 |
| -0.555 | 70.8 | -0.236 | RAB40C (RAB40C, member RAS oncogene family) | 2 |
| -0.0873 | 80.2 | -0.689 | RAB40C (RAB40C, member RAS oncogene family) | 3 |
| -0.839 | 65.2 | -0.631 | MGMT (O-6-methylguanine-DNA methyltransferase) | 1 |
| 0.922 | 100 | 0.625 | MGMT (O-6-methylguanine-DNA methyltransferase) | 2 |
| -0.979 | 62.4 | -0.229 | MGMT (O-6-methylguanine-DNA methyltransferase) | 3 |
| -0.661 | 68.7 | 0.942 | CEP43 (centrosomal protein 43) | 1 |
| 0.0718 | 83.3 | -0.191 | CEP43 (centrosomal protein 43) | 2 |
| 2.12 | 124 | 0.672 | CEP43 (centrosomal protein 43) | 3 |
| -1.29 | 56.3 | -1.5 | IBSP (integrin binding sialoprotein) | 1 |
| 2.82 | 138 | 1.76 | IBSP (integrin binding sialoprotein) | 2 |
| -0.272 | 76.5 | -0.881 | IBSP (integrin binding sialoprotein) | 3 |
| 1.53 | 112 | 1.65 | ALDOB (aldolase, fructose-bisphosphate B) | 1 |
| -1.33 | 55.5 | -0.705 | ALDOB (aldolase, fructose-bisphosphate B) | 2 |
| 0.0529 | 82.9 | 0.457 | ALDOB (aldolase, fructose-bisphosphate B) | 3 |
